Data reported in patent publication US20250283871A1, “COMPOSITIONS AND METHODS FOR MODULATING THE INTERACTION BETWEEN SS18-SSX FUSION ONCOPROTEIN AND NUCLEOSOMES” (Dana-Farber Cancer Institute, Inc., priority 2020, published 2025).

B1: CCDC137 (protein, UniProt Q6PK04 1-289, looked up)
Coiled-coil domain-containing …: MAGAGRGAAVSRVQAGPGSPRRARGRQQVQPLGKQRPAPWPGLRSKEKKKVNCKPKNQDEQEIPFRLREIMRSRQEMKNPISNKKRKKAAQVTFRKTLEKEAKGEEPDIAVPKFKQRKGESDGAYIHRMQQEAQHVLFLSKNQAIRQPEVQAAPKEKSEQKKAKKAFQKRRLDKVRRKKEEKAADRLEQELLRDTVKFGEVVLQPPELTARPQRSVSKDQPGRRSQMLRMLLSPGGVSQPLTASLARQRIVEEERERAVQAYRALKQRQQQLHGERPHLTSRKKPEPQL
B2: SPOUT1 (protein, UniProt Q5T280 1-376, looked up)
28S rRNA …: MAERGRKRPCGPGEHGQRIEWRKWKQQKKEEKKKWKDLKLMKKLERQRAQEEQAKRLEEEEAAAEKEDRGRPYTLSVALPGSILDNAQSPELRTYLAGQIARACAIFCVDEIVVFDEEGQDAKTVEGEFTGVGKKGQACVQLARILQYLECPQYLRKAFFPKHQDLQFAGLLNPLDSPHHMRQDEESEFREGIVVDRPTRPGHGSFVNCGMKKEVKIDKNLEPGLRVTVRLNQQQHPDCKTYHGKVVSSQDPRTKAGLYWGYTVRLASCLSAVFAEAPFQDGYDLTIGTSERGSDVASAQLPNFRHALVVFGGLQGLEAGADADPNLEVAEPSVLFDLYVNTCPGQGSRTIRTEEAILISLAALQPGLIQAGARHT
B3: LRIF1 (protein, UniProt Q5T3J3 1-769, looked up)
Ligand-dependent nuclear …: MSNNLRRVFLKPAEENSGNASRCVSGCMYQVVQTIGSDGKNLLQLLPIPKSSGNLIPLVQSSVMSDALKGNTGKPVQVTFQTQISSSSTSASVQLPIFQPASSSNYFLTRTVDTSEKGRVTSVGTGNFSSSVSKVQSHGVKIDGLTMQTFAVPPSTQKDSSFIVVNTQSLPVTVKSPVLPSGHHLQIPAHAEVKSVPASSLPPSVQQKILATATTSTSGMVEASQMPTVIYVSPVNTVKNVVTKNFQNIYPKPVTEIAKPVILNTTQIPKNVATETQLKGGQHSQAAPVKWIFQDNLQPFTPSLVPVKSSNNVASKILKTFVDRKNLGDNTINMPPLSTIDPSGTRSKNMPIKDNALVMFNGKVYLLAKKGTDVLPSQIDQQNSVSPDTPVRKDTLQTVSSSPVTEISREVVNIVLAKSKSSQMETKSLSNTQLASMANLRAEKNKVEKPSPSTTNPHMNQSSNYLKQSKTLFTNPIFPVGFSTGHNAPRKVTAVIYARKGSVLQSIEKISSSVDATTVTSQQCVFRDQEPKIHNEMASTSDKGAQGRNDKKDSQGRSNKALHLKSDAEFKKIFGLTKDLRVCLTRIPDHLTSGEGFDSFSSLVKSGTYKETEFMVKEGERKQQNFDKKRKAKTNKKMDHIKKRKTENAYNAIINGEANVTGSQLLSSILPTSDVSQHNILTSHSKTRQEKRTEMEYYTHEKQEKGTLNSNAAYEQSHFFNKNYTEDIFPVTPPELEETIRDEKIRRLKQVLREKEAALEEMRKKMHQK
B4: DDX24 (protein, UniProt Q9GZR7 1-859, looked up)
ATP-dependent RNA helicase …: MKLKDTKSRPKQSSCGKFQTKGIKVVGKWKEVKIDPNMFADGQMDDLVCFEELTDYQLVSPAKNPSSLFSKEAPKRKAQAVSEEEEEEEGKSSSPKKKIKLKKSKNVATEGTSTQKEFEVKDPELEAQGDDMVCDDPEAGEMTSENLVQTAPKKKKNKGKKGLEPSQSTAAKVPKKAKTWIPEVHDQKADVSAWKDLFVPRPVLRALSFLGFSAPTPIQALTLAPAIRDKLDILGAAETGSGKTLAFAIPMIHAVLQWQKRNAAPPPSNTEAPPGETRTEAGAETRSPGKAEAESDALPDDTVIESEALPSDIAAEARAKTGGTVSDQALLFGDDDAGEGPSSLIREKPVPKQNENEEENLDKEQTGNLKQELDDKSATCKAYPKRPLLGLVLTPTRELAVQVKQHIDAVARFTGIKTAILVGGMSTQKQQRMLNRRPEIVVATPGRLWELIKEKHYHLRNLRQLRCLVVDEADRMVEKGHFAELSQLLEMLNDSQYNPKRQTLVFSATLTLVHQAPARILHKKHTKKMDKTAKLDLLMQKIGMRGKPKVIDLTRNEATVETLTETKIHCETDEKDFYLYYFLMQYPGRSLVFANSISCIKRLSGLLKVLDIMPLTLHACMHQKQRLRNLEQFARLEDCVLLATDVAARGLDIPKVQHVIHYQVPRTSEIYVHRSGRTARATNEGLSLMLIGPEDVINFKKIYKTLKKDEDIPLFPVQTKYMDVVKERIRLARQIEKSEYRNFQACLHNSWIEQAAAALEIELEEDMYKGGKADQQEERRRQKQMKVLKKELRHLLSQPLFTESQKTKYPTQSGKPPLLVSAPSKSESALSCLSKQKKKKTKKPKEPQPEQPQPSTSAN
B5: SLC25A11 (protein, UniProt Q02978 2-314, looked up)
Mitochondrial …: AATASAGAGGIDGKPRTSPKSVKFLFGGLAGMGATVFVQPLDLVKNRMQLSGEGAKTREYKTSFHALTSILKAEGLRGIYTGLSAGLLRQATYTTTRLGIYTVLFERLTGADGTPPGFLLKAVIGMTAGATGAFVGTPAEVALIRMTADGRLPADQRRGYKNVFNALIRITREEGVLTLWRGCIPTMARAVVVNAAQLASYSQSKQFLLDSGYFSDNILCHFCASMISGLVTTAASMPVDIAKTRIQNMRMIDGKPEYKNGLDVLFKVVRYEGFFSLWKGFTPYYARLGPHTVLTFIFLEQMNKAYKRLFLSG
B6: NCOA5 (protein, UniProt Q9HCD5 1-579, looked up)
Nuclear receptor coactivator 5: MNTAPSRPSPTRRDPYGFGDSRDSRRDRSPIRGSPRREPRDGRNGRDARDSRDIRDPRDLRDHRHSRDLRDHRDSRSVRDVRDVRDLRDFRDLRDSRDFRDQRDPMYDRYRDMRDSRDPMYRREGSYDRYLRMDDYCRRKDDSYFDRYRDSFDGRGPPGPESQSRAKERLKREERRREELYRQYFEEIQRRFDAERPVDCSVIVVNKQTKDYAESVGRKVRDLGMVVDLIFLNTEVSLSQALEDVSRGGSPFAIVITQQHQIHRSCTVNIMFGTPQEHRNMPQADAMVLVARNYERYKNECREKEREEIARQAAKMADEAILQERERGGPEEGVRGGHPPAIQSLINLLADNRYLTAEETDKIINYLRERKERLMRSSTDSLPGPISRQPLGATSGASLKTQPSSQPLQSGQVLPSATPTPSAPPTSQQELQAKILSLFNSGTVTANSSSASPSVAAGNTPNQNFSTAANSQPQQRSQASGNQPPSILGQGGSAQNMGPRPGAPSQGLFGQPSSRLAPASNMTSQRPVSSTGINFDNPSVQKALDTLIQSGPALSHLVSQTTAQMGQPQAPMGSYQRHY
B7: RPS19BP1 (protein, UniProt Q86WX3 1-136, looked up)
Active regulator of SIRT1: MSAALLRRGLELLAASEAPRDPPGQAKPRGAPVKRPRKTKAIQAQKLRNSAKGKVPKSALDEYRKRECRDHLRVNLKFLTRTRSTVAESVSQQILRQNRGRKACDRPVAKTKKKKAEGTVFTEEDFQKFQQEYFGS
B8: SENP7 (protein, UniProt Q9BQF6 1-1050, looked up)
Sentrin-specific protease 7: MDKRKLGRRPSSSEIITEGKRKKSSSDLSEIRKMLNAKPEDVHVQSPLSKFRSSERWTLPLQWERSLRNKVISLDHKNKKHIRGCPVTSKSSPERQLKVMLTNVLWTDLGRKFRKTLPRNDANLCDANKVQSDSLPSTSVDSLETCQKLEPLRQSLNLSERIPRVILTNVLGTELGRKYIRTPPVTEGSLSDTDNLQSEQLSSSSDGSLESYQNLNPHKSCYLSERGSQRSKTVDDNSAKQTAHNKEKRRKDDGISLLISDTQPEDLNSGSRGCDHLEQESRNKDVKYSDSKVELTLISRKTKRRLRNNLPDSQYCTSLDKSTEQTKKQEDDSTISTEFEKPSENYHQDPKLPEEITTKPTKSDFTKLSSLNSQELTLSNATKSASAGSTTETVENSNSIDIVGISSLVEKDENELNTIEKPILRGHNEGNQSLISAEPIVVSSDEEGPVEHKSSEILKLQSKQDRETTNENESTSESALLELPLITCESVQMSSELCPYNPVMENISSIMPSNEMDLQLDFIFTSVYIGKIKGASKGCVTITKKYIKIPFQVSLNEISLLVDTTHLKRFGLWKSKDDNHSKRSHAILFFWVSSDYLQEIQTQLEHSVLSQQSKSSEFIFLELHNPVSQREELKLKDIMTEISIISGELELSYPLSWVQAFPLFQNLSSKESSFIHYYCVSTCSFPAGVAVAEEMKLKSVSQPSNTDAAKPTYTFLQKQSSGCYSLSITSNPDEEWREVRHTGLVQKLIVYPPPPTKGGLGVTNEDLECLEEGEFLNDVIIDFYLKYLILEKASDELVERSHIFSSFFYKCLTRKENNLTEDNPNLSMAQRRHKRVRTWTRHINIFNKDYIFVPVNESSHWYLAVICFPWLEEAVYEDFPQTVSQQSQAQQSQNDNKTIDNDLRTTSTLSLSAEDSQSTESNMSVPKKMCKRPCILILDSLKAASVQNTVQNLREYLEVEWEVKLKTHRQFSKTNMVDLCPKVPKQDNSSDCGVYLLQYVESFFKDPIVNFELPIHLEKWFPRHVIKTKREDIRELILKLHLQQQKGSSS

System: BAF complex subunits and histone proteins
Assay: Mass spectrometry proteomics of purified HA-SS18 WT and HA-SS18-SSX1 complexes (Tables 5A-5E)
Design: species or system human
Conditions: for Total / Unique: HA-SS18SSX1_CHR_peptides; for Total: total peptides of the identified protein; for Unique: unique peptides of the identified protein
[1] = HA-SS18WT_CHR_peptides: protein identified in HA-SS18 WT BAF complex purification from nuclease-treated solubilized chromatin (CHR), HEK-293T
[2] = HA-SS18SSX1 purification, NE (soluble nuclear extract) fraction, HEK-293T, peptides per identified protein
[3] = HA-SS18WT_NE_peptides: HA-SS18 WT complexes purified from nuclear extract (NE), HEK-293T, label = protein identified (Gene Symbol)
[4] = HA-SS18SSX1_NE_peptides: protein co-purified with HA-SS18-SSX1 BAF complexes from soluble nuclear extract (NE), HEK-293T cells
[5] = HA-SS18WT_CHR_peptides: HA-SS18 WT purification from nuclease-treated solubilized chromatin (CHR), HEK-293T, label = protein identified

Molecule	Total	Unique	Total (total peptides) [1]	Unique (unique peptides) [1]	Total (total peptides) [2]	Unique (unique peptides) [2]	Total (peptides) [3]	Unique (peptides) [3]	Total (peptides) [4]	Unique (peptides) [4]	Total (peptides) [5]	Unique (peptides) [5]
B1	2	2	1	1	–	–	–	–	–	–	–	–
B2	2	2	1	1	9	6	9	5	–	–	–	–
B3	2	2	1	1	–	–	–	–	–	–	–	–
B4	2	2	–	–	–	–	4	4	2	2	3	3
B5	2	2	–	–	11	11	13	13	–	–	–	–
B6	2	2	1	1	–	–	–	–	–	–	–	–
B7	2	2	2	2	–	–	–	–	–	–	–	–
B8	2	2	2	2	–	–	–	–	–	–	–	–
